From publication PMC10090947
Numbering of substitutions follows the chain as printed. Results are given in words; binding and its absence hold for the method and conditions named. In cells and extracts the contact can be indirect. A yes stands for co-enrichment or nearness to the bait. Other partners may have been found. Each block holds one molecule with its values, some of them ahead of it.

Chains of the proteins cited; added tags and fusions are not shown.
UniProt O95835: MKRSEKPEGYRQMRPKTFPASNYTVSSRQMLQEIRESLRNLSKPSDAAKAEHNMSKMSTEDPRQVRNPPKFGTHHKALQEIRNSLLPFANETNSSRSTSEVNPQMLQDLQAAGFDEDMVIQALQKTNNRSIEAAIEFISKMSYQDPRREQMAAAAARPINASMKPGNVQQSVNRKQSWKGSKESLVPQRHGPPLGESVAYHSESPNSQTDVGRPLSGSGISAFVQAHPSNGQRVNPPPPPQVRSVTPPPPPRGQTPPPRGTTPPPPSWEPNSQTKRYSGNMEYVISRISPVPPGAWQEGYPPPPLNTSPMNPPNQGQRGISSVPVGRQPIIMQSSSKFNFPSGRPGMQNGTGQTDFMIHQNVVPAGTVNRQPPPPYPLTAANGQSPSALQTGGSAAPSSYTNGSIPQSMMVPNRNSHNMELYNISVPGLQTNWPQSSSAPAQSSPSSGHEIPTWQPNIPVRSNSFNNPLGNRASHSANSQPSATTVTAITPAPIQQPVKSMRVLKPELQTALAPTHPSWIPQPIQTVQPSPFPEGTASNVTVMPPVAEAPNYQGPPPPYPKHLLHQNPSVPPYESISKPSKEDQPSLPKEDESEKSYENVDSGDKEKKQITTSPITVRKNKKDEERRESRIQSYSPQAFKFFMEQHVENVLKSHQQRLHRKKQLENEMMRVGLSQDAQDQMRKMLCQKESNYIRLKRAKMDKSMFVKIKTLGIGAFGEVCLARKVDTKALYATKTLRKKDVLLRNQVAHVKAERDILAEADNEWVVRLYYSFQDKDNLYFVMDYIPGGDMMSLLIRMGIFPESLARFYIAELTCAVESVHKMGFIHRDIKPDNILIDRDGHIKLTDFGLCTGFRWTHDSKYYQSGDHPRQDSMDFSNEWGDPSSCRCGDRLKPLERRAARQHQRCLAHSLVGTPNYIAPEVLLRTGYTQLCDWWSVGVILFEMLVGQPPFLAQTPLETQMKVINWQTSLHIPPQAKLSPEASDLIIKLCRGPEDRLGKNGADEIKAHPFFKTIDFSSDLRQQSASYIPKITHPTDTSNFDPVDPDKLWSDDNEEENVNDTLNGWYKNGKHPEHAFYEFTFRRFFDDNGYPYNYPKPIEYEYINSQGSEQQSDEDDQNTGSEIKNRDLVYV
UniProt Q7L9L4: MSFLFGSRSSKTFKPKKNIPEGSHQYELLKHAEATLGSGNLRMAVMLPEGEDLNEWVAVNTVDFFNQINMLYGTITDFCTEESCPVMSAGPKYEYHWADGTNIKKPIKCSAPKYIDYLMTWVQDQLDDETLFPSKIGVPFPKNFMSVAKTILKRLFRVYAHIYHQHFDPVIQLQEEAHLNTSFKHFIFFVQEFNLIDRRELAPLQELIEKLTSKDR
UniProt Q15678: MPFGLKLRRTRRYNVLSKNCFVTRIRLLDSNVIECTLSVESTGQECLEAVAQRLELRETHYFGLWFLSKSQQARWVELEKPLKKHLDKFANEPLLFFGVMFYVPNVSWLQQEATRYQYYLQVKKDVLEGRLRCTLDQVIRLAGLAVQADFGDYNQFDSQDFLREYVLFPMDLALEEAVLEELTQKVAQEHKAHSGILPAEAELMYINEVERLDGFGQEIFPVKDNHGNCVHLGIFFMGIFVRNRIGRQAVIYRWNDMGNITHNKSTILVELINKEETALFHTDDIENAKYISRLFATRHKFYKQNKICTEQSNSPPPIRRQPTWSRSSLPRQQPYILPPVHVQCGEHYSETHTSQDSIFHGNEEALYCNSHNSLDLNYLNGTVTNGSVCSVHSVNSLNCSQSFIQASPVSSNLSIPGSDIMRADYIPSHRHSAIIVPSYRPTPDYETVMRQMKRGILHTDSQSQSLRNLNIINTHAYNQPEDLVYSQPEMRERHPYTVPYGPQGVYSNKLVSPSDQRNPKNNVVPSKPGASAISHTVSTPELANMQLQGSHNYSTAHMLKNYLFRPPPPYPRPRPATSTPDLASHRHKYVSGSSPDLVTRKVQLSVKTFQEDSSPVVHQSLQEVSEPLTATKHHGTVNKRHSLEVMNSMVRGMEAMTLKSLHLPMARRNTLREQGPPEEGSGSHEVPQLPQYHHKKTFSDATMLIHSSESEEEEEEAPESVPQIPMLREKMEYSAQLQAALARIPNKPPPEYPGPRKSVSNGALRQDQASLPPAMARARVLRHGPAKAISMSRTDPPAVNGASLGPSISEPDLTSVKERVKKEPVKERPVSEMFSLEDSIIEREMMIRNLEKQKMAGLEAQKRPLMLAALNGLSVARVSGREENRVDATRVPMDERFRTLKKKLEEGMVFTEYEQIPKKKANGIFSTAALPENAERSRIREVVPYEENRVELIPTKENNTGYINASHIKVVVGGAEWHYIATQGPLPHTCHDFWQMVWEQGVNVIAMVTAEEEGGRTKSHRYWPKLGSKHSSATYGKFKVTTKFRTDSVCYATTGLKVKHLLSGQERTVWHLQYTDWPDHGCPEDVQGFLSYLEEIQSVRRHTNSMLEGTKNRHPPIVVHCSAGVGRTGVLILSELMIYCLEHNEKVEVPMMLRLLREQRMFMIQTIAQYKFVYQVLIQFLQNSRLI

Experiments:
Strep‐HA LATS1 (human) = Strep‐HA LATS1 (human) (UniProt O95835); test: affinity purification with mass spectrometry; reciprocal quantitative Strep AP-MS from HEK293 cells expressing Strep-HA YAP1, LATS1, PTPN14 or GFP (control) under an inducible promoter; targeted PRM with heavy reference peptides; three replicates
[1] = biological target: Strep‐HA YAP1 (wild type) (human); test: affinity purification with mass spectrometry + native gel or EMSA; AP-BNPAGE: Strep-HA YAP1 complexes captured on Strep-Tactin Sepharose, eluted with 2.5 mM biotin, separated on Native PAGE 3-12% Bis-Tris at 4°C, 64 gel slices measured by MS; co-migration modules by protein correlation profiling
[2] = biological target: Strep‐HA YAP1 (wild type) (human); test: affinity purification with mass spectrometry; Strep-HA YAP1 from induced T-REx Flp-In HEK293 cells captured on Strep-Tactin Sepharose from cleared lysate (0.5% NP40, 50 mM HEPES pH 7.5, 150 mM NaCl, 50 mM NaF); cells untreated or treated with vanadate (2, 20 min) or okadaic acid (60, 150 min); interactors filtered by SAINT > 0.90 against Strep-HA GFP controls; MS1 quantification

B1: MOB1A (protein, UniProt Q9H8S9 1-216)
chain: MSFLFSSRSSKTFKPKKNIPEGSHQYELLKHAEATLGSGNLRQAVMLPEGEDLNEWIAVNTVDFFNQINMLYGTITEFCTEASCPVMSAGPRYEYHWADGTNIKKPIKCSAPKYIDYLMTWVQDQLDDETLFPSKIGVPFPKNFMSVAKTILKRLFRVYAHIYHQHFDSVMQLQEEAHLNTSFKHFIFFVQEFNLIDRRELAPLQELIEKLGSKDR
- binding [1]: binds

B2: MOB1B (protein, UniProt Q7L9L4 1-216)
chain: B1 chain with S6G, Q43M, I57V, E77D, A82E, R92K, S169P, M171I, G212T
- binding [1]: binds

B3: 1433F (protein, UniProt Q04917 1-246)
chain: MGDREQLLQRARLAEQAERYDDMASAMKAVTELNEPLSNEDRNLLSVAYKNVVGARRSSWRVISSIEQKTMADGNEKKLEKVKAYREKIEKELETVCNDVLSLLDKFLIKNCNDFQYESKVFYLKMKGDYYRYLAEVASGEKKNSVVEASEAAYKEAFEISKEQMQPTHPIRLGLALNFSVFYYEIQNAPEQACLLAKQAFDDAIAELDTLNEDSYKDSTLIMQLLRDNLTLWTSDQQDEEAGEGN
- binding [2]: binds

B4: RASFF8 (protein, UniProt Q8NHQ8 1-419)
chain: MELKVWVDGVQRIVCGVTEVTTCQEVVIALAQAIGRTGRYTLIEKWRDTERHLAPHENPIISLNKWGQYASDVQLILRRTGPSLSERPTSDSVARIPERTLYRQSLPPLAKLRPQIDKSIKRREPKRKSLTFTGGAKGLMDIFGKGKETEFKQKVLNNCKTTADELKKLIRLQTEKLQSIEKQLESNEIEIRFWEQKYNSNLEEEIVRLEQKIKRNDVEIEEEEFWENELQIEQENEKQLKDQLQEIRQKITECENKLKDYLAQIRTMESGLEAEKLQREVQEAQVNEEEVKGKIGKVKGEIDIQGQQSLRLENGIKAVERSLGQATKRLQDKEQELEQLTKELRQVNLQQFIQQTGTKVTVLPAEPIEIEASHADIEREAPFQSGSLKRPGSSRQLPSNLRILQNPISSGFNPEGIYV
- binding [2]: binds

Continued, values first:

- binding (Strep‐HA LATS1 (human)): binds
Molecule: nonreceptor tyrosine phosphatase 14 (PTPN14), endogenous (from UniProt Q15678 1-1187) (enzyme)

- binding [1]: binds
B5: AMOTL1 (protein, UniProt Q8IY63 1-956)
chain: MWRAKLRRGTCEPAVKGSPSACYSPSSPVQVLEDSTYFSPDFQLYSGRHETSALTVEATSSIREKVVEDPLCNFHSPNFLRISEVEMRGSEDAAAGTVLQRLIQEQLRYGTPTENMNLLAIQHQATGSAGPAHPTNNFSSTENLTQEDPQMVYQSARQEPQGQEHQVDNTVMEKQVRSTQPQQNNEELPTYEEAKAQSQFFRGQQQQQQQQGAVGHGYYMAGGTSQKSRTEGRPTVNRANSGQAHKDEALKELKQGHVRSLSERIMQLSLERNGAKQHLPGSGNGKGFKVGGGPSPAQPAGKVLDPRGPPPEYPFKTKQMMSPVSKTQEHGLFYGDQHPGMLHEMVKPYPAPQPVRTDVAVLRYQPPPEYGVTSRPCQLPFPSTMQQHSPMSSQTSSASGPLHSVSLPLPLPMALGAPQPPPAASPSQQLGPDAFAIVERAQQMVEILTEENRVLHQELQGYYDNADKLHKFEKELQRISEAYESLVKSTTKRESLDKAMRNKLEGEIRRLHDFNRDLRDRLETANRQLSSREYEGHEDKAAEGHYASQNKEFLKEKEKLEMELAAVRTASEDHRRHIEILDQALSNAQARVIKLEEELREKQAYVEKVEKLQQALTQLQSACEKREQMERRLRTWLERELDALRTQQKHGNGQPANMPEYNAPALLELVREKEERILALEADMTKWEQKYLEESTIRHFAMNAAATAAAERDTTIINHSRNGSYGESSLEAHIWQEEEEVVQANRRCQDMEYTIKNLHAKIIEKDAMIKVLQQRSRKDAGKTDSSSLRPARSVPSIAAATGTHSRQTSLTSSQLAEEKKEEKTWKGSIGLLLGKEHHEHASAPLLPPPPTSALSSIASTTAASSAHAKTGSKDSSTQTDKSAELFWPSMASLPSRGRLSTTPAHSPVLKHPAAKGTAEKLENSPGHGKSPDHRGRVSSLLHKPEFPDGEMMEVLI
